In patent publication US20180066066A1 (University of Texas, published 2018):
Where a chain is given by its changes, count along the chain named. No constants are given. Whether binding was seen depends on the method and setting. Some entries that bind do so weakly or less than the wild type.

By UniProt entry, the sequences of proteins in these tests, tags left out. Residues count along the entry.
UniProt Q61526, residues 20-641: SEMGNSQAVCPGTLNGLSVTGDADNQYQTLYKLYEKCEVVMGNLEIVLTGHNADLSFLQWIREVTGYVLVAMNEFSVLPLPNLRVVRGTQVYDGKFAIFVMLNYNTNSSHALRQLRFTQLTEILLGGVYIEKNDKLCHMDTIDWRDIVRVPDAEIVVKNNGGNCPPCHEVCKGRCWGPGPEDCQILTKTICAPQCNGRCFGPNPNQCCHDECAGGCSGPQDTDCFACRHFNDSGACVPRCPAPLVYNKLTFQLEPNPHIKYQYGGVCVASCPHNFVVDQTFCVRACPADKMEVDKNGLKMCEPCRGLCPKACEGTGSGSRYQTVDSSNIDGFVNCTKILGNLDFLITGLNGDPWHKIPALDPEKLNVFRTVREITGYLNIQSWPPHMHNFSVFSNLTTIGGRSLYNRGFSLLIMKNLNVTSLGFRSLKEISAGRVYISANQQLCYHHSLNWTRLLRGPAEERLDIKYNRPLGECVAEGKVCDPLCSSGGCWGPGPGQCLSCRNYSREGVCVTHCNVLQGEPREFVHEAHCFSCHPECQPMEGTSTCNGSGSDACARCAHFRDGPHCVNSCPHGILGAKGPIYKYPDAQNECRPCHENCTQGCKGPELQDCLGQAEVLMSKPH
UniProt P21860, residues 20-643: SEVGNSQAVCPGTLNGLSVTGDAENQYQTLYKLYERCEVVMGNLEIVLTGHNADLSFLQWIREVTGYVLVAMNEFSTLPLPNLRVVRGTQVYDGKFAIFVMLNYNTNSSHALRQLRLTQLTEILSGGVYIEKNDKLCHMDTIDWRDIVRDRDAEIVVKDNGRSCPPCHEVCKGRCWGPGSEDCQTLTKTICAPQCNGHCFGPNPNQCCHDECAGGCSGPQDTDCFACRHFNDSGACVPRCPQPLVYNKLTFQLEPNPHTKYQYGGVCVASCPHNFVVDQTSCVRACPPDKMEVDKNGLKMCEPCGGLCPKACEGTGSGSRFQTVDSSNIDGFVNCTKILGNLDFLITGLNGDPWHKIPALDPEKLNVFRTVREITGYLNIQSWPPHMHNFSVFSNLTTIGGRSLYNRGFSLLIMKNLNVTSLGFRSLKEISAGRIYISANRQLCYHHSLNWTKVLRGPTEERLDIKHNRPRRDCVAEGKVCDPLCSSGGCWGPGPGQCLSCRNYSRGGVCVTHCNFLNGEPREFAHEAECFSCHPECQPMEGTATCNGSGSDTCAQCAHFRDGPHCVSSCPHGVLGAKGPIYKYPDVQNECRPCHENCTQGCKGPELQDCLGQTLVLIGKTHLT

B1: HER3-hMab-A9 (antibody, V domains shown)
VH: QVQLVESGGGLVQPGGSLRLSCSASGFSFSASYYIYWVRQAPGKGLEYIAYITGDDDKRTYYANWAKGRFTISRDNSKNTVYLQMNSLRAEDTAVYYCTRNLPDELWGPGTLVTVSS
VL: DIQMTQTPSTLSASVGDRVTITCQSSESVYSYKNLAWYQQKPGKPPKLLIWQASRLSSGVPSRFSGSGSGTEFTLTISSLQPDDFATYYCQGTYYSSAWDFVFGGGTKVEIK
B2: HER3-hMab-A12 (antibody, V domains shown)
VH: B1 VH with N76T
VL: B1 VL with D1Q, I2A
B3: HER3-hMab-A11 (antibody, V domains shown)
VH: B1 VH
VL: B1 VL with D1Q, I2A
B4: HER3-hMab-A10 (antibody, V domains shown)
VH: B1 VH with N76T
VL: B1 VL

Target: T1, Mouse HER3 ECD (mouse, UniProt Q61526 20-641)
T1 construct: extracellular domain; also called mouse HER3 ECD domains
Experiment: ELISA on mouse HER3 ECD

binding	Binder
binds	B1
binds	B2
binds	B3
binds	B4

Target: T2, human HER3/ErbB3 extracellular domain (human, UniProt P21860 20-643)
T2 construct: extracellular domain; the range 1-643 of M34309 is printed only for the immunogen; also called Human HER3 ECD; recombinant human HER3
Experiment: ELISA on human HER3 ECD

binding	Binder
binds	B1
binds	B2
binds	B3
binds	B4
